# According to the supplement of paper PMC12823440, “Inhibitors supercharge kinase turnover through native proteolytic circuits” (Nature, 2025):
# Sequences of proteins named here, by UniProt entry; tags and fusion partners are left off. A change or cut given only in a name is not applied to a line headed by its entry.
# UniProt Q15208: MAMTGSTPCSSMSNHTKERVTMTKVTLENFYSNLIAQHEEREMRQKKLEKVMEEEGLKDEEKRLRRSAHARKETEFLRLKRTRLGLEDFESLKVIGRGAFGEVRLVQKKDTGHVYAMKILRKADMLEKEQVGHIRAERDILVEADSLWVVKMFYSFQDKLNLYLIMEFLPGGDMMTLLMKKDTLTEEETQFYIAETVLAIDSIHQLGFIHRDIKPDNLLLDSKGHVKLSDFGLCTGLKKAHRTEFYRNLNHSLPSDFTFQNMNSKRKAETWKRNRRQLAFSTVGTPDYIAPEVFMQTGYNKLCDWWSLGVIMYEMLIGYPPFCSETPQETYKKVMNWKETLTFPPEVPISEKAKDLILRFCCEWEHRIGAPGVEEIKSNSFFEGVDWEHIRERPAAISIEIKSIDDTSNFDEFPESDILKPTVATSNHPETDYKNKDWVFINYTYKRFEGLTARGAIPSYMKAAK
# UniProt P42680: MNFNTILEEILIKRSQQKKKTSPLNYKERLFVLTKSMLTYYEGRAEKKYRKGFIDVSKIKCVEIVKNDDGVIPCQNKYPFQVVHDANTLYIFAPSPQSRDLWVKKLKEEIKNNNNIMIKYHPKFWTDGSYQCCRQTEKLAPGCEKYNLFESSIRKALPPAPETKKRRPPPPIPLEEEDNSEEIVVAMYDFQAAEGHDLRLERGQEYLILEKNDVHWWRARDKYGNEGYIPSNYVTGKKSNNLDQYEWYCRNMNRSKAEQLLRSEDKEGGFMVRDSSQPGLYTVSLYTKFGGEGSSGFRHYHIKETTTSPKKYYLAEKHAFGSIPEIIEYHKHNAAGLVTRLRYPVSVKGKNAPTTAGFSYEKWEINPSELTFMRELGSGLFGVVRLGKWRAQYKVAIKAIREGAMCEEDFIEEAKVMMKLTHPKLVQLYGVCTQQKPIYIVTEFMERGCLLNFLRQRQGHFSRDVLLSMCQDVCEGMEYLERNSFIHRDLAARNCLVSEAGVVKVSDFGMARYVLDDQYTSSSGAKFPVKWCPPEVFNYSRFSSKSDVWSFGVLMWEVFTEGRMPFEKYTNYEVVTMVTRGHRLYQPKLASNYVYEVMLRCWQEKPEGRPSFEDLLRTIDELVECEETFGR
# UniProt P29597: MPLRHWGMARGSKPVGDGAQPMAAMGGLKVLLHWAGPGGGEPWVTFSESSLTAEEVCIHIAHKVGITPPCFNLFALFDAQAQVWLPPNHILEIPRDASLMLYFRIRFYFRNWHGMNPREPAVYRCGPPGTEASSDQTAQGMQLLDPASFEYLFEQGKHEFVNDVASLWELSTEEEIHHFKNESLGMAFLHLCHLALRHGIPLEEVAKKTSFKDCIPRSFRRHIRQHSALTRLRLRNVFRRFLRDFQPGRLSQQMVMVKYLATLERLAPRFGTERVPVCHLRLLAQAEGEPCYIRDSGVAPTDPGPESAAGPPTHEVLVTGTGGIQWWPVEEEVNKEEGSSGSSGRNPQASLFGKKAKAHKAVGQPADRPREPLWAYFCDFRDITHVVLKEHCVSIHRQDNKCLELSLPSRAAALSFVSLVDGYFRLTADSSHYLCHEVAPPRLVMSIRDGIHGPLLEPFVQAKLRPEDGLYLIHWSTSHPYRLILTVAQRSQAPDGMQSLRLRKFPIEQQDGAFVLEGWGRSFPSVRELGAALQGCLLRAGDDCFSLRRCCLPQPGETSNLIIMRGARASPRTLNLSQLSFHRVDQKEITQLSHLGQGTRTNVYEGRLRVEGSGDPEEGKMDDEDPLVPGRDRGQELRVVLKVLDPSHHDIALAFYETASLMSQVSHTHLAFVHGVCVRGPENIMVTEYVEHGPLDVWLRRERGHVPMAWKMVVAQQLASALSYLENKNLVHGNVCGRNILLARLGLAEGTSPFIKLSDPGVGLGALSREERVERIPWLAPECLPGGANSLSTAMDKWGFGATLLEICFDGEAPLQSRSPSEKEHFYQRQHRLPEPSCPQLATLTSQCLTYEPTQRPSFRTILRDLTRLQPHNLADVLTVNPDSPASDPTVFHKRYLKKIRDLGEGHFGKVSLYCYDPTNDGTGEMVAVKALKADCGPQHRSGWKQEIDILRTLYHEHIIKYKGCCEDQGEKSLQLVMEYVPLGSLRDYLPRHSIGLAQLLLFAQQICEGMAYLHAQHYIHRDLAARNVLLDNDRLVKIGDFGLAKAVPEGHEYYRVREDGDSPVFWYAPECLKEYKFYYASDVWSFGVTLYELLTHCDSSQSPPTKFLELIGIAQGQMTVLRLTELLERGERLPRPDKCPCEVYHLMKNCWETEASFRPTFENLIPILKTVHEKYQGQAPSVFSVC
# UniProt Q6PHR2: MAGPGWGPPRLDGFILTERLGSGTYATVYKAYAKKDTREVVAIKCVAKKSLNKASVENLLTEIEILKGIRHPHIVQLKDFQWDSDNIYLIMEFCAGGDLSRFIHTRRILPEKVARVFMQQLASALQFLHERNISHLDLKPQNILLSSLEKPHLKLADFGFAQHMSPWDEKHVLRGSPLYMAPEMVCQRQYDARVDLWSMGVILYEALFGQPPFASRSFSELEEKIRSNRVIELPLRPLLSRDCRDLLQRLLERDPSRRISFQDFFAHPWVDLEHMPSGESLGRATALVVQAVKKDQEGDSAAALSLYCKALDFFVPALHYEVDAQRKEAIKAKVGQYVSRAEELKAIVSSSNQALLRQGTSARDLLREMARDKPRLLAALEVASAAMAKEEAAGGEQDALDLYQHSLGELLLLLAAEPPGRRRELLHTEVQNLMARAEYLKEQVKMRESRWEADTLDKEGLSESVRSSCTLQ
# UniProt P07947, whole entry, looked up: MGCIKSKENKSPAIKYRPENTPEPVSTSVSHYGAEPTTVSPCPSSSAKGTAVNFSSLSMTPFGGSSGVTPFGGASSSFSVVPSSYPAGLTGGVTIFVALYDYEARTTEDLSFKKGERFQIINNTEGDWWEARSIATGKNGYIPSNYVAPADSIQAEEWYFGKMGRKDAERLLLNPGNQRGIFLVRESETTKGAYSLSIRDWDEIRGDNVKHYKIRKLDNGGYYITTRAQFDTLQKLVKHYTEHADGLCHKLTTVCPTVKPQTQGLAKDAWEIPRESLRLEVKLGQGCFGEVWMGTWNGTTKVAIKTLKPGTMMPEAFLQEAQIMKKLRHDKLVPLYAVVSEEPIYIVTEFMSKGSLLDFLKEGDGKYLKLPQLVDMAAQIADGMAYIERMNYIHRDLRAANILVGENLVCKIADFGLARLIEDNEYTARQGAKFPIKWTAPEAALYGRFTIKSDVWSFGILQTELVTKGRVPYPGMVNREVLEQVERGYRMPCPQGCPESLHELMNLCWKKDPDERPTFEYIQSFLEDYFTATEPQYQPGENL
# UniProt P43403: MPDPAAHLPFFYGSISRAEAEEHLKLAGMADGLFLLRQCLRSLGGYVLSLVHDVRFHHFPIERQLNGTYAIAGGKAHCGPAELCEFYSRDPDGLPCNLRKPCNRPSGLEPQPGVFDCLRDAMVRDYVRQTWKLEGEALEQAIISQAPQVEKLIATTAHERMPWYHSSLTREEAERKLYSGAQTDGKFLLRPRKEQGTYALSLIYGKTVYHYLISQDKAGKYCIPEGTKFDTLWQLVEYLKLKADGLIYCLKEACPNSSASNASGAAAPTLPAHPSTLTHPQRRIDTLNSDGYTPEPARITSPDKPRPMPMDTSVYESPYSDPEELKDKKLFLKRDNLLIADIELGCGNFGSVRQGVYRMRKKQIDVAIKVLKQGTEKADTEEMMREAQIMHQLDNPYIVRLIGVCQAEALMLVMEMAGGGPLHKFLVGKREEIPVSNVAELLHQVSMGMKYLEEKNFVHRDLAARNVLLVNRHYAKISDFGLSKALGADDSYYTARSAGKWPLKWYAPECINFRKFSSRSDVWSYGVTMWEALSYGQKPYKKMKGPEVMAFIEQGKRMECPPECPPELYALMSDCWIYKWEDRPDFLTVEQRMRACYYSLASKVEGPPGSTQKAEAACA
# UniProt P00519, whole entry: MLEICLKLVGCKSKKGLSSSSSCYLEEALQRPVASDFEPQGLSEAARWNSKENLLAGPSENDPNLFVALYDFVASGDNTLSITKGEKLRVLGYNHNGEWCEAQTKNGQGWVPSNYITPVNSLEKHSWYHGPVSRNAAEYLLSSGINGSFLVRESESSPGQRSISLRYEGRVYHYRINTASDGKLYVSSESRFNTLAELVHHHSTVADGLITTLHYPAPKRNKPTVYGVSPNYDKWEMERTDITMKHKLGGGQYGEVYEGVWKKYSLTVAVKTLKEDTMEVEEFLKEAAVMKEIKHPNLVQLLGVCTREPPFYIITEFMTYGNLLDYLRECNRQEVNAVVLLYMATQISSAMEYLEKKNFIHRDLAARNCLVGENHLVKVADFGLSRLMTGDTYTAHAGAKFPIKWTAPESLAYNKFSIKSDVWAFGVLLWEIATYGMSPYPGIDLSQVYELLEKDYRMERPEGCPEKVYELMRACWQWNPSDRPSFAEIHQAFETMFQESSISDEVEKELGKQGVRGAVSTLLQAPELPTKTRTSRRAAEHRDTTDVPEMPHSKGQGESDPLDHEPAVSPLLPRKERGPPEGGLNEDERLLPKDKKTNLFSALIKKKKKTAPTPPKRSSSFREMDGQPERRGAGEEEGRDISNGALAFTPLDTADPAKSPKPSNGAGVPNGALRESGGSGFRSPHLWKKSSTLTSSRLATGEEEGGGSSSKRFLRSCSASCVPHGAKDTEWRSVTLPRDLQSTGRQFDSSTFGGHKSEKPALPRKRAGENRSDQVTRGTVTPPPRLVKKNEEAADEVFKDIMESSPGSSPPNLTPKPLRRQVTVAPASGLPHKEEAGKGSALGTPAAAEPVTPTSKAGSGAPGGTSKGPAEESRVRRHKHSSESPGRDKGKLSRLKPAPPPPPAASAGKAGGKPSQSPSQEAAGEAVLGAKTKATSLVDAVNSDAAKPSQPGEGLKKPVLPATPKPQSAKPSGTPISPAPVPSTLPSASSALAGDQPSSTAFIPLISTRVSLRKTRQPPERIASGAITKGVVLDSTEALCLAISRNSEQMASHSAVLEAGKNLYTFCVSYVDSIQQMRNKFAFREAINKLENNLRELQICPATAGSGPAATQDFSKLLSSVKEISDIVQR
# UniProt P31749: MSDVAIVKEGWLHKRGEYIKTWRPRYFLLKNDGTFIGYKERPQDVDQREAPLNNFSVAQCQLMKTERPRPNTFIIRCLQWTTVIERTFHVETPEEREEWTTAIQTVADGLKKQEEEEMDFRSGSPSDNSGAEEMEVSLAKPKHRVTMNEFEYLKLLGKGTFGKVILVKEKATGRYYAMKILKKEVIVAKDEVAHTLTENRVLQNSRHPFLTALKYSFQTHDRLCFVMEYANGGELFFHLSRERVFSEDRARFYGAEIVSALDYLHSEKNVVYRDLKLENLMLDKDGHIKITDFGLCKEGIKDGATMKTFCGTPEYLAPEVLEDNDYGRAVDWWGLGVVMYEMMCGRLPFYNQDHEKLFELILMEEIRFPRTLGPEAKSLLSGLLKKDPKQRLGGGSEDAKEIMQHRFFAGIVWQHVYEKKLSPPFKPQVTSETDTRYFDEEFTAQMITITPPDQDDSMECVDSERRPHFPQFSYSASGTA
# This is one part of the list. Hit calls seldom repeat between salt and free forms of one compound.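 Kinases, fused to nanoluciferase, were expressed in K562 cells; luminescence was measured every 4 h from 2 to 18 h as percent of control (DMSO = 100%, positive control = 0%). A time point is decreased if signal falls significantly (2 sigma). Hits were called by the authors by a rule that is not shown; the count of time points alone does not decide it.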
# Experiments:
# Details in all cases: K562; 2-18 h
# [1] = target: STK38 (UniProt Q15208); experiment: kinase-Nluc reporter destabilization hit call (1 = scored as downregulated) (binary); higher = compound decreases kinase abundance
# [2] = target: SYK (UniProt P43405); experiment: as above
# [3] = target: TEC (UniProt P42680); experiment: as above
# [4] = target: TYK2 (UniProt P29597); experiment: as above
# [5] = target: ULK3 (UniProt Q6PHR2); experiment: as above
# [6] = target: YES1 (UniProt P07947); experiment: as above
# [7] = target: ZAK (UniProt Q9NYL2); experiment: as above
# [8] = target: ZAP70 (UniProt P43403); experiment: as above
# [9] = target: ABL1 (UniProt P00519); experiment: number of time points (of 5) at which kinase-Nluc abundance scored as decreased, DMSO-normalised (count); higher = more persistent destabilization
# [10] = target: AKT1 (UniProt P31749); experiment: as above
SMILES,kinase-Nluc reporter destabilization hit call [1],kinase-Nluc reporter destabilization hit call [2],kinase-Nluc reporter destabilization hit call [3],kinase-Nluc reporter destabilization hit call [4],kinase-Nluc reporter destabilization hit call [5],kinase-Nluc reporter destabilization hit call [6],kinase-Nluc reporter destabilization hit call [7],kinase-Nluc reporter destabilization hit call [8],number of time points [9],number of time points [10]
COc1ccccc1C(=O)/C=C/c1ccccc1C(=O)O (10 µM),inactive: 0,inactive: 0,inactive: 0,inactive: 0,inactive: 0,inactive: 0,inactive: 0,inactive: 0,0,0
CC[C@@](C)(Nc1ccnc(-c2c[nH]c3ncccc23)n1)C(=O)NCC(F)(F)F [Decernotinib] (10 µM),inactive: 0,inactive: 0,inactive: 0,inactive: 0,inactive: 0,inactive: 0,inactive: 0,inactive: 0,0,0
COc1cc2ncnc(-n3nc(-c4ccccn4)nc3N)c2cc1OC (10 µM),inactive: 0,inactive: 0,inactive: 0,inactive: 0,inactive: 0,inactive: 0,inactive: 0,inactive: 0,0,0
COc1cc(N2CCOCC2)ccc1Nc1ncc(Cl)c(Nc2ccccc2NS(C)(=O)=O)n1 (2.5 µM),inactive: 0,inactive: 0,inactive: 0,inactive: 0,inactive: 0,inactive: 0,inactive: 0,inactive: 0,0,0
C[C@@H]1COCCN1c1nc(-c2cnc(N)cc2C(F)F)nc(N2[C@H](C)COC[C@@H]2C)n1 (2.5 µM),inactive: 0,inactive: 0,inactive: 0,inactive: 0,inactive: 0,inactive: 0,inactive: 0,inactive: 0,5,0
C=CC(=O)N1C(=O)CC(c2ccc(F)cc2)Sc2ccccc21 (stereo not drawn) [GSK-3β inhibitor 3] (10 µM),inactive: 0,inactive: 0,inactive: 0,inactive: 0,inactive: 0,inactive: 0,inactive: 0,inactive: 0,0,0
O=[N+]([O-])c1ccc(Nc2nc(N3CCOCC3)nc(N3CCOCC3)n2)cc1 (10 µM),inactive: 0,inactive: 0,inactive: 0,inactive: 0,inactive: 0,inactive: 0,inactive: 0,inactive: 0,0,0
CC(C)c1cccc(C(C)C)c1N1C(=O)c2ccc(N)cc2C1=O (2.5 µM),inactive: 0,inactive: 0,inactive: 0,inactive: 0,inactive: 0,inactive: 0,inactive: 0,inactive: 0,0,0
CN(c1ccc(NC(=O)Nc2ccc(OC(F)(F)F)cc2)cc1)c1ccnc(Nc2cccc(S(N)(=O)=O)c2)n1 (2.5 µM),inactive: 0,inactive: 0,inactive: 0,inactive: 0,inactive: 0,inactive: 0,inactive: 0,inactive: 0,2,0
COc1cc2ncnc(Nc3ccc(F)c(Cl)c3)c2cc1NC(=O)/C=C/CN1CCCCC1 [Dacomitinib] (10 µM),inactive: 0,inactive: 0,inactive: 0,inactive: 0,inactive: 0,inactive: 0,inactive: 0,inactive: 0,0,0
O=C1NC(=O)/C(=C/c2ccc3nccc(-c4ccncc4)c3c2)S1 (10 µM),inactive: 0,inactive: 0,inactive: 0,inactive: 0,inactive: 0,inactive: 0,inactive: 0,inactive: 0,5,0
CCc1cncnc1N1CCN(Cc2nc3ccc(C(F)(F)F)cc3[nH]2)CC1 (10 µM),inactive: 0,inactive: 0,inactive: 0,inactive: 0,inactive: 0,inactive: 0,inactive: 0,inactive: 0,0,0
COc1cc(N(C)CCN(C)C)c(N)cc1Nc1nccc(-c2cn(C)c3ccccc23)n1 [Mutated EGFR-IN-1] (10 µM),inactive: 0,inactive: 0,inactive: 0,inactive: 0,inactive: 0,inactive: 0,inactive: 0,inactive: 0,0,0
N#Cc1c2nc3ccccc3nc2n2ccc(NC(=O)c3cccs3)cc12 (10 µM),inactive: 0,inactive: 0,inactive: 0,inactive: 0,inactive: 0,inactive: 0,inactive: 0,inactive: 0,0,0
C=CC(=O)Nc1cccc(CNc2nc(Nc3ccc(N4CCN(C)CC4)cc3OC)ncc2Cl)c1 (10 µM),inactive: 0,inactive: 0,inactive: 0,inactive: 0,inactive: 0,inactive: 0,inactive: 0,inactive: 0,0,0
COc1ncccc1-c1cnn2ccc(N3CCN(C(=O)OC(C)C)CC3)nc12 (10 µM),inactive: 0,inactive: 0,inactive: 0,inactive: 0,inactive: 0,inactive: 0,inactive: 0,inactive: 0,0,0
CC(C)(O)[C@H]1CC[C@H](Nc2ccc3ncc(-c4cccc(C(F)(F)F)c4)n3n2)CC1 (10 µM),inactive: 0,inactive: 0,inactive: 0,inactive: 0,inactive: 0,inactive: 0,inactive: 0,inactive: 0,0,0
CC/C(=N\NC(=O)c1ccnc(NCCCN2CCOCC2)c1)c1ccc(Cl)cc1O (2.5 µM),inactive: 0,inactive: 0,inactive: 0,inactive: 0,inactive: 0,inactive: 0,inactive: 0,inactive: 0,0,0
O=C(Nc1cccc(Nc2ncc(Br)c(NCCc3cnc[nH]3)n2)c1)N1CCCC1 (10 µM),inactive: 0,inactive: 0,inactive: 0,inactive: 0,inactive: 0,inactive: 0,inactive: 0,inactive: 0,4,0
C=C[C@@](C)(/C=C/c1ccc(O)cc1)CCC=C(C)C [Bakuchiol] (10 µM),inactive: 0,inactive: 0,inactive: 0,inactive: 0,inactive: 0,inactive: 0,inactive: 0,inactive: 0,0,0
CCCCCCCCCCCCCCCCOP(=O)([O-])OCC[N+](C)(C)C [Miltefosine] (10 µM),inactive: 0,inactive: 0,inactive: 0,inactive: 0,inactive: 0,inactive: 0,inactive: 0,inactive: 0,0,0
CC(=O)c1c(C)c2cnc(Nc3ccc(N4CCN(C(=O)CNc5cccc6c5C(=O)N(C5CCC(=O)NC5=O)C6=O)CC4)cn3)nc2n(C2CCCC2)c1=O (stereo not given) (10 µM),inactive: 0,inactive: 0,inactive: 0,inactive: 0,inactive: 0,inactive: 0,inactive: 0,inactive: 0,0,0
O=C1NC(=Nc2c(Cl)cccc2Cl)S/C1=C\c1ccc2nccnc2c1 (2.5 µM),inactive: 0,inactive: 0,inactive: 0,inactive: 0,inactive: 0,inactive: 0,inactive: 0,inactive: 0,2,0
COc1cc(-c2cn[nH]c2)ccc1C(=O)Nc1ccc2c(c1)CCNCC2 (10 µM),inactive: 0,inactive: 0,inactive: 0,inactive: 0,inactive: 0,inactive: 0,inactive: 0,inactive: 0,0,0
Oc1cc(O)c2c(c1)OC1(c3ccc(O)c(O)c3)Oc3cc(O)c4c(c3C2C1O)OC(c1ccc(O)c(O)c1)C(O)C4 (stereo not given) [Procyanidin A1] (10 µM),inactive: 0,inactive: 0,inactive: 0,inactive: 0,inactive: 0,inactive: 0,inactive: 0,inactive: 0,0,0
COc1cc2ncnc(Nc3ccccc3)c2cc1OC (10 µM),inactive: 0,inactive: 0,inactive: 0,inactive: 0,inactive: 0,inactive: 0,inactive: 0,inactive: 0,0,0
Cc1cnc(-c2ccc(-c3ccc(NC(=O)Nc4cccc(C(F)(F)F)c4)cc3F)c3c2C(=O)NC3)[nH]1 (10 µM),inactive: 0,inactive: 0,inactive: 0,inactive: 0,inactive: 0,inactive: 0,inactive: 0,inactive: 0,0,0
c1cc(NC2CCNCC2)nc(-c2cnc3ccccn23)c1 [IRAK inhibitor 1] (10 µM),inactive: 0,inactive: 0,inactive: 0,inactive: 0,inactive: 0,inactive: 0,inactive: 0,inactive: 0,0,0
COc1ccc2cc(-c3nc(-c4ccc([S+](C)[O-])cc4)[nH]c3-c3ccncc3)ccc2c1 (stereo not given) [Tie2 kinase inhibitor 1] (2.5 µM),inactive: 0,inactive: 0,inactive: 0,inactive: 0,inactive: 0,inactive: 0,inactive: 0,inactive: 0,0,0

# Two entries picked at random from the list so far:
SMILES,kinase-Nluc reporter destabilization hit call [1],kinase-Nluc reporter destabilization hit call [2],kinase-Nluc reporter destabilization hit call [3],kinase-Nluc reporter destabilization hit call [4],kinase-Nluc reporter destabilization hit call [5],kinase-Nluc reporter destabilization hit call [6],kinase-Nluc reporter destabilization hit call [7],kinase-Nluc reporter destabilization hit call [8],number of time points [9],number of time points [10]
C[C@@H]1COCCN1c1nc(-c2cnc(N)cc2C(F)F)nc(N2[C@H](C)COC[C@@H]2C)n1 (2.5 µM),inactive: 0,inactive: 0,inactive: 0,inactive: 0,inactive: 0,inactive: 0,inactive: 0,inactive: 0,5,0
CC(C)(O)[C@H]1CC[C@H](Nc2ccc3ncc(-c4cccc(C(F)(F)F)c4)n3n2)CC1 (10 µM),inactive: 0,inactive: 0,inactive: 0,inactive: 0,inactive: 0,inactive: 0,inactive: 0,inactive: 0,0,0
